Some of the results follow.
Columns and labels:
Experiment in all cases: log2 fold change, soluble protein after heating vs DMSO (PISA); higher = thermal stabilisation; K562 lysate, 10 uM; active = over 0.2 and 3.5 SD of the protein, either way, in both replicates (recomputed)
[1] = compound: C[C@H](Nc1ncnc2nc[nH]c12)c1cc2cccc(Cl)c2c(=O)n1-c1ccccc1 [duvelisib]
How it was run: (§1)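 K562 pellets were dounce-homogenised in PBS pH 7.4 with 1 mM MgCl2, and the crude extract at 1 mg/mL protein was treated with 10 μM compound for 30 min. Aliquots were heated for 3 min across 48°C-58°C, pooled, and brought to 0.5% NP-40 at 4°C; soluble protein was the supernatant after 21,000xg for 90 min. Soluble protein was quantified by TMTpro 16plex LC-MS/MS with channel sums equalised, and reported as log2 fold change in thermal stability against DMSO controls, with values from duplicates.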

Amino acid sequences for entries named in this document (tags omitted). A change or cut given only in a name is not applied to a line headed by its entry.
UniProt Q96NS5: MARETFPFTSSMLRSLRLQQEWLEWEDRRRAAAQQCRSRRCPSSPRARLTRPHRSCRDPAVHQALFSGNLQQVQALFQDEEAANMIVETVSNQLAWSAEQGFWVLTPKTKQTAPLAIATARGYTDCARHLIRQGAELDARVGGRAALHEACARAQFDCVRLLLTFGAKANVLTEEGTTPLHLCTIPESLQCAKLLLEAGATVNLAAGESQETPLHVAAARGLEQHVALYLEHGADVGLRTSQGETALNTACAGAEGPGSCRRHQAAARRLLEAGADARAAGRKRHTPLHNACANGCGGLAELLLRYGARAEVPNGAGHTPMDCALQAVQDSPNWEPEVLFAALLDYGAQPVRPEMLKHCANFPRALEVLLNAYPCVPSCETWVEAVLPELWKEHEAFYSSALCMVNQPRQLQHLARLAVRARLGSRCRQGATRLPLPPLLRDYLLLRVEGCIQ
UniProt Q96GD4, whole entry, looked up: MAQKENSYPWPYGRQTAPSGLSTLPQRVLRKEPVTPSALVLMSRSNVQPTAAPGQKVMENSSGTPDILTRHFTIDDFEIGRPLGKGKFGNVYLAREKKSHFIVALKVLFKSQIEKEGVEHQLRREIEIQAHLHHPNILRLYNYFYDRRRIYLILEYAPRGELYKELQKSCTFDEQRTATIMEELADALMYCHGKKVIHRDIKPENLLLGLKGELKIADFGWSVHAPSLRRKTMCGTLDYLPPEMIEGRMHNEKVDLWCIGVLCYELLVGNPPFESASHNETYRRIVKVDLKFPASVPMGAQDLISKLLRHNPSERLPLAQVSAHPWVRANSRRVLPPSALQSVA
UniProt Q8WWM7: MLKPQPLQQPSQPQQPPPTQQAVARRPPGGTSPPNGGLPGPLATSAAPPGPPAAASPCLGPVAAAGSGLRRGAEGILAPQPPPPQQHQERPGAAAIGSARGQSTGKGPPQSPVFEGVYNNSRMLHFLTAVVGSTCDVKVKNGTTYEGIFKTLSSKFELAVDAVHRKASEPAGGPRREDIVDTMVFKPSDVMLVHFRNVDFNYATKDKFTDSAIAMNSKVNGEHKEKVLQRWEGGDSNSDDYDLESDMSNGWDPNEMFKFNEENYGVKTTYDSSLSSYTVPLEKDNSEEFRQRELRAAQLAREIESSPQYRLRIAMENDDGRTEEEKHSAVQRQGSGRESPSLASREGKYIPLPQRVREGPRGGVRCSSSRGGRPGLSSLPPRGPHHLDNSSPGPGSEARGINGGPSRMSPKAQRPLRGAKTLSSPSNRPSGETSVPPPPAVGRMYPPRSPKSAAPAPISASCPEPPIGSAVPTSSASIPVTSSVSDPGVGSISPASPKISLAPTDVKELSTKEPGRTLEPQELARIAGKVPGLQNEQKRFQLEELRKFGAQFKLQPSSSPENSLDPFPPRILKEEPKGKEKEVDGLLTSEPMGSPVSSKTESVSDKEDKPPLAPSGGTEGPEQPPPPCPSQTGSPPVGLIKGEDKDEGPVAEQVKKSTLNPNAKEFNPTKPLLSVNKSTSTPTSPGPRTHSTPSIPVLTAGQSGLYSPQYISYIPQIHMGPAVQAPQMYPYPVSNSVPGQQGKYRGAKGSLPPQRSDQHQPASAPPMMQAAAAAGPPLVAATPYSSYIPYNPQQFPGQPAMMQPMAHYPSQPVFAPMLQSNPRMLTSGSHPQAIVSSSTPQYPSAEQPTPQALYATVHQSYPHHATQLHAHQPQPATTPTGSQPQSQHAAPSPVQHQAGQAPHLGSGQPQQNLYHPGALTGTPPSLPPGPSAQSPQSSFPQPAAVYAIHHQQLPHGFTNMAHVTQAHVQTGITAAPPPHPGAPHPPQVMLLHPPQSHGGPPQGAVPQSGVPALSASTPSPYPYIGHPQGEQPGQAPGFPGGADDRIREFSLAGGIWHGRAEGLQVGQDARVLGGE
UniProt Q9C0F0: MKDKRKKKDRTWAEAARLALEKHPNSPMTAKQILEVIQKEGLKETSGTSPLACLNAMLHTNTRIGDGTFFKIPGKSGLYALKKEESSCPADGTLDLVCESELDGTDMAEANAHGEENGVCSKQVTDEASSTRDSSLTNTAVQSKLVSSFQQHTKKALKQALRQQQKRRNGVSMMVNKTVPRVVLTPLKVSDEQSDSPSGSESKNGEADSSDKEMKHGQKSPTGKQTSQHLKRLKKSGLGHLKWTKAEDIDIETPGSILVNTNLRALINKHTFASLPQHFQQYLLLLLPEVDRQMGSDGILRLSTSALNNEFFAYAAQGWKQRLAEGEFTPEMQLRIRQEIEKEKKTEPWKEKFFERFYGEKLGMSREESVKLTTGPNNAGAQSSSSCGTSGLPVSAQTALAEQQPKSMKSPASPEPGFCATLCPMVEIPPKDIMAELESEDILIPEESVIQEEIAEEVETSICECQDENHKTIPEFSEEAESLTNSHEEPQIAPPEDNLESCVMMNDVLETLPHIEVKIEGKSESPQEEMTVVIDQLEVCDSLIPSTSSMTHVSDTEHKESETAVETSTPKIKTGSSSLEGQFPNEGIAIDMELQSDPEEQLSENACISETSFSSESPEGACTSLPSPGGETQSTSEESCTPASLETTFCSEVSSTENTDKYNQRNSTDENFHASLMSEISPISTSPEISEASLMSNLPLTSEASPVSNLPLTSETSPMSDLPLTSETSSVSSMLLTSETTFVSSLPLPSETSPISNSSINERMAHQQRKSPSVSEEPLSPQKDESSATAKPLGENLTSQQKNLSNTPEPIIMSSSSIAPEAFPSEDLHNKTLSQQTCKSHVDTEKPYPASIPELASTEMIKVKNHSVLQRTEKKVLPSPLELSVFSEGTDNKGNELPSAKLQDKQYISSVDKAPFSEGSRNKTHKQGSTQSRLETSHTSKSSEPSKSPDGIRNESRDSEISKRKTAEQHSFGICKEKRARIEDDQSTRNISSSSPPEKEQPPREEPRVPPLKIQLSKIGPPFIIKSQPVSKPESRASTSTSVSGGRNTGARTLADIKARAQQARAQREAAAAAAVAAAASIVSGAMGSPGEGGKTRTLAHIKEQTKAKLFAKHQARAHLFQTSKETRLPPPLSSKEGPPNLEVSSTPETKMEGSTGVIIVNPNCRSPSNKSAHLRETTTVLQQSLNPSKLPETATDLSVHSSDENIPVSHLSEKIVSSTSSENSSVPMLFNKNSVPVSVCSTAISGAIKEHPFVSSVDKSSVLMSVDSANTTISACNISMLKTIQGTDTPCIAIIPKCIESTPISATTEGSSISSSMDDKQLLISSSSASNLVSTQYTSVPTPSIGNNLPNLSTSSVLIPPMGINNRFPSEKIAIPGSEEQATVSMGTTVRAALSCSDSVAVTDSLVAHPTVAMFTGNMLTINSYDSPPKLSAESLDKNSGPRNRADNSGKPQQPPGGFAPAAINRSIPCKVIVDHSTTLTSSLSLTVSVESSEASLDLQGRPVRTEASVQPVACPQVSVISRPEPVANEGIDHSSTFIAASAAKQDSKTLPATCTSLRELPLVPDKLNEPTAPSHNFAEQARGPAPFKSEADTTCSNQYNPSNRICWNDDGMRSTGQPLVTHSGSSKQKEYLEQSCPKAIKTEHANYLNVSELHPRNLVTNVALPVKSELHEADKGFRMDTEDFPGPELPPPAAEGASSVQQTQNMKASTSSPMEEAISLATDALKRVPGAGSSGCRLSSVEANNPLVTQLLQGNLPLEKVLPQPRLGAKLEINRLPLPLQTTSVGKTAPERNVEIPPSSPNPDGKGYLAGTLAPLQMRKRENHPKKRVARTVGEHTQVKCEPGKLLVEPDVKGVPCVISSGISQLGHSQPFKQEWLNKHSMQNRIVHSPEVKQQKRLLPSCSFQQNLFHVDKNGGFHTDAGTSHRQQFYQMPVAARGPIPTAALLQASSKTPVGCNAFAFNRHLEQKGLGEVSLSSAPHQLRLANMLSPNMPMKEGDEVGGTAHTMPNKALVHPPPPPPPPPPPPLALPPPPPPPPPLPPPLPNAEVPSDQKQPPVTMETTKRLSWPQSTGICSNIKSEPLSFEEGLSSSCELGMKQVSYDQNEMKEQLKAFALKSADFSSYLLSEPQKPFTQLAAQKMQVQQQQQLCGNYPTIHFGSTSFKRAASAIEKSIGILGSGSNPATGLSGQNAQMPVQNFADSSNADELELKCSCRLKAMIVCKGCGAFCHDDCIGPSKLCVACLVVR
UniProt Q96QE3: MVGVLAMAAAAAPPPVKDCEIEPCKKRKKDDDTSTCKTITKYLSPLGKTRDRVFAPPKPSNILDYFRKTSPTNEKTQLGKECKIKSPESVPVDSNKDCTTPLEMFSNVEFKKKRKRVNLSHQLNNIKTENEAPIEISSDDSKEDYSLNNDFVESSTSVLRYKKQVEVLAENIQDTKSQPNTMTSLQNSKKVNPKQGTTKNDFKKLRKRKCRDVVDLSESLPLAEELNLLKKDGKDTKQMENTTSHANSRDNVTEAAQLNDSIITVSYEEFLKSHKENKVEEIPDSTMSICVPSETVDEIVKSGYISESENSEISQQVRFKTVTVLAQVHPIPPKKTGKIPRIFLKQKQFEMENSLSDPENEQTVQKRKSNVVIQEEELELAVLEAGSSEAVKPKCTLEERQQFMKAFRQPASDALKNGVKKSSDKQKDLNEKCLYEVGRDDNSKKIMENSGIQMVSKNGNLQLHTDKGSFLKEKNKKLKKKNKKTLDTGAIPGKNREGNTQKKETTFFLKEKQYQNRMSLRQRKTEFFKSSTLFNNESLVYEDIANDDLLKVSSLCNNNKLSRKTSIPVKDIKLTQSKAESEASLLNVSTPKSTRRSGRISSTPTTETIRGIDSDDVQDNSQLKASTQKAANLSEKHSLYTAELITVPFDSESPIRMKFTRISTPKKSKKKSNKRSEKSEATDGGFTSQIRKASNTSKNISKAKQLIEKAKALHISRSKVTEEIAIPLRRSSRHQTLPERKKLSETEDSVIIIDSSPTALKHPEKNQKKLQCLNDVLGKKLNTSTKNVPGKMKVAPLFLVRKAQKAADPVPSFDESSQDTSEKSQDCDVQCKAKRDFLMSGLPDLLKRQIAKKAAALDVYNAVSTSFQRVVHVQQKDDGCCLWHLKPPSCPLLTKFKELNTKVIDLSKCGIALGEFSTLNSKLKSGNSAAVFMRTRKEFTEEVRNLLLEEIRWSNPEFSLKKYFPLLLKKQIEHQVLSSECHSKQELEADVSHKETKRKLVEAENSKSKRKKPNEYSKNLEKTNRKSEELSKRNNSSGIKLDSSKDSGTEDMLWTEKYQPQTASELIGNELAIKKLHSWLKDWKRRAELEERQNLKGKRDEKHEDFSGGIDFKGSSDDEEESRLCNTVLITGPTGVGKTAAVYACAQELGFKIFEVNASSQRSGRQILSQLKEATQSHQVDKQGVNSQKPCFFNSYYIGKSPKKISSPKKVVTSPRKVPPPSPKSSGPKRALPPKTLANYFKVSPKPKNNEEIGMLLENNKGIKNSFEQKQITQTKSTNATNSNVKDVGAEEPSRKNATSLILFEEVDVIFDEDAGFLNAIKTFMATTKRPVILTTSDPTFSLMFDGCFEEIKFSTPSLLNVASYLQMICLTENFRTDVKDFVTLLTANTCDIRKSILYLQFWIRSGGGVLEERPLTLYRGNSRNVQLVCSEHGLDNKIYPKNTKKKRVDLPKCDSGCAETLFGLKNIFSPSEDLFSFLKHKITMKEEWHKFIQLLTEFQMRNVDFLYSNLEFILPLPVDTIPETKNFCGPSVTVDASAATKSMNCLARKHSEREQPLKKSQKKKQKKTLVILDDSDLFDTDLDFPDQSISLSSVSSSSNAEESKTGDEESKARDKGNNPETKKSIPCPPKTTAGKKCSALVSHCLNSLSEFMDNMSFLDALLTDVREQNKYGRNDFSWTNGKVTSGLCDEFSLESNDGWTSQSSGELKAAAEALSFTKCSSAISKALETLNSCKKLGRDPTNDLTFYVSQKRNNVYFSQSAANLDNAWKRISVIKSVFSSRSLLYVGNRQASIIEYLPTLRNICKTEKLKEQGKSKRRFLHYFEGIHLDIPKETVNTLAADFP
UniProt Q96DX5: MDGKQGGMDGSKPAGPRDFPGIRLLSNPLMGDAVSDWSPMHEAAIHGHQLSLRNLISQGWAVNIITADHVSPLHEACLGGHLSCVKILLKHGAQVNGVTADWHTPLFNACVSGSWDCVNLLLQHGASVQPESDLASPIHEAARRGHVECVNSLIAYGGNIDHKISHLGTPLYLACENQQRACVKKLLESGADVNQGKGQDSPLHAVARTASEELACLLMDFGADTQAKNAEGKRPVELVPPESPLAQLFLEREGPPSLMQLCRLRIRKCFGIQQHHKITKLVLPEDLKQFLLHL
UniProt Q96L58: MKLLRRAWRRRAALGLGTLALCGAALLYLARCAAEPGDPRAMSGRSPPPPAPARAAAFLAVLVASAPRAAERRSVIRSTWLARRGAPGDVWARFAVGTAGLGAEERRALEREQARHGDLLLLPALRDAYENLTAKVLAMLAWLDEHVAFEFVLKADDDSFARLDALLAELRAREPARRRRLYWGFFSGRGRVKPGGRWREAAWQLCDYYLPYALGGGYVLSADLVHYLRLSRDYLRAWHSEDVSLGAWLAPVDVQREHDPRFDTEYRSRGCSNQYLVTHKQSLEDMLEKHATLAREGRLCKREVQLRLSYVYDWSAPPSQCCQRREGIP

[2] = compound: Cc1nc(Nc2ncc(C(=O)Nc3c(C)cccc3Cl)s2)cc(N2CCN(CCO)CC2)n1 [dasatinib]
How it was run: as §1

[3] = compound: Cn1cc(-c2ccc3c(c2)CCN3C(=O)Cc2cccc(C(F)(F)F)c2)c2c(N)ncnc21
How it was run: as §1

[4] = compound: CS(=O)(=O)CCNCc1ccc(-c2ccc3ncnc(Nc4ccc(OCc5cccc(F)c5)c(Cl)c4)c3c2)o1 [lapatinib]
How it was run: as §1

[5] = compound: C[C@@H](Oc1cc(-c2cnn(C3CCNCC3)c2)cnc1N)c1c(Cl)ccc(F)c1Cl [crizotinib]
How it was run: as §1

[6] = compound: Cc1ccc(-n2nc(C(C)(C)C)cc2NC(=O)Nc2ccc(OCCN3CCOCC3)c3ccccc23)cc1 [doramapimod]
How it was run: as §1

[7] = compound: Cn1cc(CNCC2CCN(c3ncc(C(=O)NO)cn3)CC2)c2ccccc21 [quisinostat]
How it was run: as §1

[8] = compound: NC(=O)Nc1cc(-c2cccc(F)c2)sc1C(=O)N[C@H]1CCCNC1
How it was run: as §1

[9] = compound: NC(=O)c1cnc(N[C@@H]2CCCC[C@@H]2N)nc1Nc1cccc(-n2nccn2)c1
How it was run: as §1

[10] = compound: C[C@H](C1=CC=C(C=C1)C(=O)NC2=C3C=CNC3=NC=C2)N
How it was run: as §1

[11] = compound: Cc1cc(Nc2cc(CN3CCOCC3)c3nc(C)c(Cc4ccc(Cl)cc4F)n3n2)n[nH]1 [gandotinib]
How it was run: as §1

[12] = compound: Cc1cc(Nc2cc(N3CCN(C)CC3)nc(Sc3ccc(NC(=O)C4CC4)cc3)n2)n[nH]1 [tozasertib]
How it was run: as §1

[13] = compound: Cc1cccc(CC(=O)N2CCc3c2ccc(-c2cn(C)c4ncnc(N)c24)c3F)n1
How it was run: as §1

[14] = compound: Cc1cn(-c2cc(NC(=O)c3ccc(C)c(Nc4nccc(-c5cccnc5)n4)c3)cc(C(F)(F)F)c2)cn1 [nilotinib]
How it was run: as §1

[15] = compound: Cc1nc(Nc2n[nH]c3c2CN(C(=O)N[C@H](CN(C)C)c2ccccc2)C3(C)C)c2sccc2n1
How it was run: as §1

[16] = compound: Cc1ncc(-c2ccnc(Nc3ccc(S(C)(=O)=O)cc3)n2)n1C(C)C
How it was run: as §1

[17] = compound: Cn1cncc1[C@@](N)(c1ccc(Cl)cc1)c1ccc2c(c1)c(-c1cccc(Cl)c1)cc(=O)n2C [tipifarnib]
How it was run: as §1

[18] = compound: NC1(c2ccc(-c3nc4ccn5c(=O)[nH]nc5c4cc3-c3ccccc3)cc2)CCC1
How it was run: as §1

[19] = compound: CS(=O)(=O)N1CCN(Cc2cc3nc(-c4cccc5[nH]ncc45)nc(N4CCOCC4)c3s2)CC1 [pictilisib]
How it was run: as §1

[20] = compound: Cc1ccc(NC(=O)c2ccc(CN3CC[C@H](N(C)C)C3)c(C(F)(F)F)c2)cc1Nc1nccc(-c2cncnc2)n1 [bafetinib]
How it was run: as §1

Measured: log2 fold change

ATXN2 (UniProt F8WB06)
inactive: [1] 0.187 | [2] -0.074 | [3] -0.053

ASB16 (UniProt Q96NS5)
inactive: [4] -0.215 | [5] -0.517 | [1] -0.074 | [6] -0.3 | [2] 0.023 | [3] -0.229 | [7] -0.237 | [8] -0.009 | [9] 0.045

ATXN2L (UniProt H3BUF6)
inactive: [4] -0.049 | [5] 0.047 | [10] 0.004 | [1] 0.028 | [11] 0.115 | [12] -0.001 | [6] 0.115 | [13] 0.013 | [14] -0.027 | [15] -0.043 | [2] -0.101 | [16] 0.153 | [3] -0.05 | [7] -0.07 | [17] 0.111 | [8] -0.032 | [9] 0.016 | [18] -0.011

ATRX (UniProt P46100)
inactive: [19] 0.049 | [5] -0.082 | [10] 0.062 | [1] 0.16 | [11] 0.008 | [12] 0.026 | [6] -0.001 | [20] -0.012 | [13] 0.075 | [2] 0 | [3] -0.031 | [7] -0.076 | [8] 0.143 | [18] -0.267

AURKB isoform 5 (UniProt Q96GD4)
inactive: [19] -0.042 | [10] -0.036 | [1] -0.023 | [11] 0.673 | [12] 0.318 | [6] -0.027 | [20] 0.02 | [13] 0.043 | [14] -0.175 | [15] 0.008 | [2] 0.195 | [16] 0.073 | [3] 0.206 | [7] -0.124 | [17] -0.043 | [8] 0.741 | [18] -0.072

ATXN2L (UniProt Q8WWM7)
inactive: [19] -0.045 | [5] 0.04 | [10] 0.028 | [1] -0.018 | [11] 0.031 | [12] 0.05 | [6] 0.028 | [20] -0.057 | [13] -0.009 | [14] 0 | [15] 0.034 | [2] 0.076 | [16] -0.027 | [3] -0.103 | [7] 0.054 | [17] -0.119 | [8] -0.069 | [18] -0.13

ATP1B4 (UniProt Q9UN42)
inactive: [4] 0.111 | [5] 0.197 | [1] -0.128 | [6] -0.077 | [2] 0.032 | [3] -0.011 | [7] 0.139 | [8] 0.024 | [9] -0.002

ASXL3 (UniProt Q9C0F0)
inactive: [4] -0.109 | [5] 0.071 | [6] -0.131 | [7] -0.062 | [8] -0.019 | [9] -0.009 | [18] 0.018

ATP5F1B (UniProt F8W0P7)
inactive: [1] -0.01 | [2] 0.106 | [3] 0.002 | [18] -0.096

ATAD5 (UniProt Q96QE3)
inactive: [12] 0.26 | [14] 0.078 | [15] 0.007 | [16] -0.067 | [17] -0.061 | [18] -0.025

Pulled one by one from the list above, 2 records:
ATXN2L (UniProt H3BUF6)
inactive: [4] -0.049 | [5] 0.047 | [10] 0.004 | [1] 0.028 | [11] 0.115 | [12] -0.001 | [6] 0.115 | [13] 0.013 | [14] -0.027 | [15] -0.043 | [2] -0.101 | [16] 0.153 | [3] -0.05 | [7] -0.07 | [17] 0.111 | [8] -0.032 | [9] 0.016 | [18] -0.011

AURKB isoform 5 (UniProt Q96GD4)
inactive: [19] -0.042 | [10] -0.036 | [1] -0.023 | [11] 0.673 | [12] 0.318 | [6] -0.027 | [20] 0.02 | [13] 0.043 | [14] -0.175 | [15] 0.008 | [2] 0.195 | [16] 0.073 | [3] 0.206 | [7] -0.124 | [17] -0.043 | [8] 0.741 | [18] -0.072

Continued.

ASB9 (UniProt Q96DX5)
inactive: [4] 0.198 | [9] -0.114 | [18] -0.168

B3GALT6 (UniProt Q96L58)
inactive: [19] -0.047 | [5] -0.123 | [1] 0.045 | [6] 0.1 | [20] -0.066 | [2] -0.148 | [3] 0.233 | [7] -0.086 | [8] 0.137 | [18] -0.174

B4GALNT1 (UniProt Q00973)
inactive: [4] -0.146 | [5] -0.029 | [10] 0.067 | [1] -0.054 | [11] 0.081 | [12] 0.072 | [6] -0.022 | [13] 0.023 | [14] -0.056 | [15] -0.002 | [2] 0.167 | [16] -0.175 | [3] 0.018 | [7] -0.063 | [17] -0.127 | [8] 0.018 | [9] 0.158 | [18] 0.03
